{"source": "paper PMC4479448", "about": "(PLoS ONE, 2015)", "assay": "general procedure: Fmoc solid-phase peptide synthesis", "conditions": "whole synthesis, MALDI-TOF MS", "note": "Strings that start with PEPTIDE1 are HELM notation: dots part the residues, brackets hold end groups and non-standard residues."}
{"substance": "PEPTIDE1{G.R.K.K.R.R.Q.R.R.R.P.P.Q.P.D.A.L.K.S.R.T.L.R}$$$$V2.0", "values": [{"measurement": "final ms purity", "result": ">95", "unit": "%"}]}
